Measurements published in US8592610B2, “Spiroheterocyclic tetronic acid derivatives” (Bayer CropScience AG, priority 2009, dated 2013).
Some of these results come from one statement about several compounds together.

What was measured:
Assay type in all cases: in vivo
Echinocloa crus-galli [1] = experiment: Herbicidal pre-emergence action; conditions: 320 g/ha a.i., three weeks
Lolium multiflorum [2] = experiment: Herbicidal pre-emergence action; conditions: 320 g/ha a.i., three weeks
Alopecurus myosuroides [3] = experiment: Herbicidal post-emergence action; conditions: post-emergence section, 80 g/ha, about three weeks
Echinocloa crus-galli [4] = experiment: Herbicidal post-emergence action; conditions: post-emergence section, 80 g/ha, about three weeks
Setaria viridis = experiment: Herbicidal post-emergence action; conditions: post-emergence section, 80 g/ha, about three weeks
Lolium multiflorum [5] = experiment: Herbicidal post-emergence action; conditions: post-emergence section, 80 g/ha, about three weeks
Alopecurus myosuroides [6] = experiment: Herbicidal pre-emergence action; conditions: 320 g/ha a.i., three weeks

Measured: herbicidal effect in percent

CCc1cc(C)cc(CC)c1C1=C(O)C2(CCN(OC)CC2)OC1=O [I-a-10]
≥ 80%: Echinocloa crus-galli [1] | Lolium multiflorum [2] | Alopecurus myosuroides [3] | Echinocloa crus-galli [4] | Setaria viridis | Lolium multiflorum [5] | Alopecurus myosuroides [6]

CCON1CCC2(CC1)OC(=O)C(c1c(CC)cc(C)cc1CC)=C2O [I-a-11]
≥ 80%: Alopecurus myosuroides [3] | Echinocloa crus-galli [4] | Setaria viridis | Lolium multiflorum [5]
